# Assay results published in PMC4223510.
# These are yes or no findings as the source states them, for the method shown. In cells and extracts the contact can be indirect. For some assays here: Binding can be weak; no strength is given. Where a sequence is shown, tags or fusion partners need not be part of it.
# Key:
# [1] = biological target: His-tagged HIV-1 integrase p32 (His-INp32) (HIV-1 strain NL4-3); assay: pull-down; 293T cells cotransfected with Flag-HAP95 and a His-tagged protein; lysates (50 mM NaH2PO4 pH 8.0, 150 mM NaCl, 10 mM imidazole, 0.5% Triton X-100, 10% glycerol) precipitated with Ni-NTA agarose, 4°C, 2 h; eluted with 250 mM imidazole; Western blot with anti-His and anti-Flag
# [2] = biological target: His-tagged HIV-1 reverse transcriptase p66 (His-RTp66) (HIV-1 strain NL4-3); assay: as above
binder,measurement,setting,value
"Flag-HAP95 (N-terminally Flag-tagged A-kinase anchoring protein 95-like protein) (protein, UniProt Q9ULX6 2-646) SYTGFVQGSETTLQSTYSDTSAQPTCDYGYGTWNSGTNRGYEGYGYGYGYGQDNTTNYGYGMATSHSWEMPSSDTNANTSASGSASADSVLSRINQRLDMVPHLETDMMQGGVYGSGGERYDSYESCDSRAVLSERDLYRSGYDYSELDPEMEMAYEGQYDAYRDQFRMRGNDTFGPRAQGWARDARSGRPMASGYGRMWEDPMGARGQCMSGASRLPSLFSQNIIPEYGMFQGMRGGGAFPGGSRFGFGFGNGMKQMRRTWKTWTTADFRTKKKKRKQGGSPDEPDSKATRTDCSDNSDSDNDEGTEGEATEGLEGTEAVEKGSRVDGEDEEGKEDGREEGKEDPEKGALTTQDENGQTKRKLQAGKKSQDKQKKRQRDRMVERIQFVCSLCKYRTFYEDEMASHLDSKFHKEHFKYVGTKLPKQTADFLQEYVTNKTKKTEELRKTVEDLDGLIQQIYRDQDLTQEIAMEHFVKKVEAAHCAACDLFIPMQFGIIQKHLKTMDHNRNRRLMMEQSKKSSLMVARSILNNKLISKKLERYLKGENPFTDSPEEEKEQEEAEGGALDEGAQGEAAGISEGAEGVPAQPPVPPEPAPGAVSPPPPPPPEEEEEGAVPLLGGALQRQIRGIPGLDVEDDEEGGGGAP",binding,[1],no binding
same,binding,[2],binds
